PubChem BioAssay AID686938 – Drosophila RNAi Screening Center – 2013
The deposit covers about 23,000 reagents; this is an unselected part of those with a known target gene and a result. In the full data, 75 (0.33%) got an active call. 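Raw plate signals without normalisation; calls rest on plate z-scores that were not deposited; ratio present for only 364 wells.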 A plus sign joins genes that one reagent is predicted to hit. The record does not give: the dose of the treatment.

Purpose: 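Knock-downs reducing store-operated calcium influx in Drosophila cells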 (primary screen)
Cell system: Drosophila S2R+ cells
Knock-down reagent: long dsRNA against Drosophila genes, about 0.25 µg dsRNA per well, roughly 10,000 cells
Duration: 5 days of knock-down before the calcium assay
Treatment: thapsigargin (SERCA pump blocker) to empty calcium stores; entry signal taken 4 min after adding it
Measured: 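Per-well fluo-4 fluorescence in two replicates, unnormalised, measured in resting cells and 4 min after store depletion by the SERCA blocker thapsigargin; ratio of the two present in few wells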
Scale: calcium entry signal: higher = stronger calcium signal after store depletion; entry to resting ratio: higher = more calcium entry relative to resting level; resting calcium signal: higher = higher resting calcium signal
Call rule: 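Called when the plate z-score of the entry-to-rest ratio, mean of duplicates, falls below −3; wells with low overall dye signal (Fmax z below −2) or more than five off-targets excluded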
Meaning of the calls: active = strongly reduced calcium entry; inactive = no strong reduction

Gene | amplicon | calcium entry signal, replicate 1 (fluorescence units) | calcium entry signal, replicate 2 (fluorescence units) | entry to resting ratio | resting calcium signal, replicate 1 (fluorescence units) | resting calcium signal, replicate 2 (fluorescence units) | call
CG18787 + CG18789 | DRSC02698 | 2.68e7 | 2.07e7 | – | 1.43e7 | 1.03e7 | inactive
Tm2 (Tropomyosin 2) | DRSC16887 | 3.74e7 | 6.92e7 | – | 1.97e7 | 6.05e7 | inactive
CG6607 | DRSC16073 | 3.50e7 | 4.34e7 | – | 1.98e7 | 2.00e7 | inactive
CG13933 | DRSC08402 | 4.46e7 | 4.02e7 | – | 2.03e7 | 1.97e7 | inactive
CG1233 | DRSC08269 | 4.62e7 | 3.88e7 | – | 2.04e7 | 1.97e7 | inactive
rngo (rings lost) | DRSC19903 | 4.65e7 | 2.80e7 | – | 2.41e7 | 1.47e7 | inactive
ac (achaete) | DRSC18734 | 2.92e7 | 3.23e7 | 1.8 | 1.60e7 | 1.51e7 | inactive
peng (penguin) | DRSC20583 | 4.50e7 | 4.06e7 | – | 2.03e7 | 1.63e7 | inactive
CG17652 | DRSC00511 | 2.74e7 | 3.77e7 | – | 1.42e7 | 1.64e7 | inactive
CG5280 | DRSC10498 | 3.51e7 | 4.21e7 | – | 1.71e7 | 1.80e7 | inactive
CG5280 | DRSC22835 | 2.94e7 | 5.13e7 | – | 1.44e7 | 2.24e7 | inactive
Irbp (Inverted repeat-binding protein) | DRSC17007 | 3.03e7 | 3.10e7 | – | 1.57e7 | 1.59e7 | inactive
Irbp (Inverted repeat-binding protein) | DRSC23317 | 3.79e7 | 4.42e7 | – | 1.91e7 | 2.03e7 | inactive
IntS1 (Integrator 1) | DRSC04343 | 2.51e7 | – | – | 1.51e7 | – | inactive
CG32407 | DRSC09789 | 1.93e7 | 3.23e7 | – | 9.66e6 | 1.41e7 | inactive
Hrb98DE (Heterogeneous nuclear ribonucleoprotein at 98DE) | DRSC16709 | 6.47e7 | 6.46e7 | – | 2.66e7 | 3.01e7 | inactive
CG1764 | DRSC19779 | 4.25e7 | 4.65e7 | – | 2.06e7 | 2.07e7 | inactive
Max | DRSC11218 | 3.97e7 | 4.33e7 | – | 1.83e7 | 2.79e7 | inactive
GstZ1 (Glutathione S transferase Z1) | DRSC16478 | 3.53e7 | 3.90e7 | – | 1.54e7 | 2.01e7 | inactive
CG18213 | DRSC15316 | 3.99e7 | 5.94e7 | – | 1.78e7 | 5.87e7 | inactive
lin-52 | DRSC18106 | 2.58e7 | 3.60e7 | – | 1.37e7 | 1.66e7 | inactive
DZIP1 | DRSC14620 | 3.57e7 | 3.74e7 | – | 1.85e7 | 1.60e7 | inactive
CG12118 | DRSC17813 | 3.17e7 | 3.39e7 | – | 1.57e7 | 1.59e7 | inactive
CG31673 | DRSC03207 | 3.40e7 | – | – | 1.67e7 | – | inactive
Srg2 (Sting-regulated gene 2) | DRSC10681 | 3.87e7 | 2.25e7 | – | 2.71e7 | 1.03e7 | inactive
CG14722 | DRSC14944 | 3.03e7 | 3.46e7 | – | 1.33e7 | 1.70e7 | inactive
CG43102 | DRSC13261 | 5.13e7 | 2.97e7 | – | 2.28e7 | 1.41e7 | inactive
CG43102 | DRSC14797 | 2.72e7 | 3.68e7 | – | 4.18e7 | 1.98e7 | inactive
CG43102 | DRSC16239 | 1.89e7 | 2.68e7 | – | 2.94e7 | 1.16e7 | inactive
CG13155 | DRSC06280 | 2.97e7 | 3.55e7 | – | 1.54e7 | 1.67e7 | inactive
CG14340 | DRSC00370 | 4.29e7 | 4.28e7 | – | 1.89e7 | 1.74e7 | inactive
qin | DRSC14782 | 4.40e7 | 4.11e7 | – | 4.72e7 | 1.86e7 | inactive
qin | DRSC14785 | 4.09e7 | 4.48e7 | – | 2.88e7 | 2.14e7 | inactive
Cpr64Ac (Cuticular protein 64Ac) | DRSC08462 | 3.82e7 | 4.14e7 | – | 2.02e7 | 1.85e7 | inactive
CG2906 | DRSC06841 | 3.29e7 | 3.33e7 | – | 1.49e7 | 1.37e7 | inactive
Rgk2 (Rad, Gem/Kir family member 2) | DRSC06503 | 5.66e7 | 6.89e7 | – | 2.40e7 | 2.98e7 | inactive
Rgk2 (Rad, Gem/Kir family member 2) | DRSC21651 | 3.89e7 | 3.93e7 | – | 2.13e7 | 1.80e7 | inactive
CG31226 | DRSC21724 | 2.56e7 | 3.28e7 | – | 1.41e7 | 1.62e7 | inactive
Bdp1 (B double prime 1) | DRSC03192 | 2.99e7 | – | – | 1.48e7 | – | inactive
CG30369 | DRSC21996 | 2.77e7 | 4.94e7 | – | 1.46e7 | 2.24e7 | inactive

A portion taken from the entries so far:
Gene | amplicon | calcium entry signal, replicate 1 (fluorescence units) | calcium entry signal, replicate 2 (fluorescence units) | entry to resting ratio | resting calcium signal, replicate 1 (fluorescence units) | resting calcium signal, replicate 2 (fluorescence units) | call
lin-52 | DRSC18106 | 2.58e7 | 3.60e7 | – | 1.37e7 | 1.66e7 | inactive
DZIP1 | DRSC14620 | 3.57e7 | 3.74e7 | – | 1.85e7 | 1.60e7 | inactive
